Data as given in US20240382610A1.
No constants are given. Whether binding was seen depends on the method and setting. Some binding calls cover weakened binding; strength is not graded here.

The chains behind the UniProt entries cited, without tags or fusion partners. Residues count along the entry.
UniProt Q96NY8, residues 32-510: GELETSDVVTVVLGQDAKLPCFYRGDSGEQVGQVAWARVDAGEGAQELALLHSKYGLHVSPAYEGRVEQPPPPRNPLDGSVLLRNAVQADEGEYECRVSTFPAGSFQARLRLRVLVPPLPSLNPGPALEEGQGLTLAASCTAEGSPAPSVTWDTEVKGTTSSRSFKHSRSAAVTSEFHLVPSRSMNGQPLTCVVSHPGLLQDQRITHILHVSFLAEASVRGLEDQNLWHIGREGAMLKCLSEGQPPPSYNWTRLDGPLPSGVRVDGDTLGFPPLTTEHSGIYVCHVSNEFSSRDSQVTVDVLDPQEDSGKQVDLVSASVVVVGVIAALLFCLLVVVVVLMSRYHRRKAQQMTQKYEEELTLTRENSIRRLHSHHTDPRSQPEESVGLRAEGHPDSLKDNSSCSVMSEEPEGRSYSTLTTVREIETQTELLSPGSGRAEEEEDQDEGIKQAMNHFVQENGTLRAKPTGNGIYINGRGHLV

Columns and labels:
[1] = target: Human nectin-4-IgV-6His (TNT-252) (human) (UniProt Q96NY8); assay: SPR Biacore 8K
[2] = target: human nectin-4 on cells (human) (UniProt Q96NY8); assay: flow cytometry, AF647-labelled antibody on SKBR3 cells (endogenous nectin-4)

binding [1]: binds
binding [2]: binds
B1: TNT-336 (antibody, V domains shown)
VH: KVQLVESGGGLVQPGGSLRLSCEASGFTFSNYWMHWVRQVPGEGLVWVSRLNNGGTSTRYADSVKSRFTISRDNAKNTLYLQMNSLRAEDTAVYYCVRDWYFDLWGRGTLVTVSS
VL: QLVLTQSPSASASLGASVKLTCTLSSGHSFYAIAWHQQQPEKGPRYLMQVNSNGSHNKGDGIPDRFSGSSSGAERYLTISSLQSEDEADYYCQSWDTDIWVFGGGTKLTVLG
